Results taken from article PMC9251544.
No constants are given. Whether binding was seen depends on the method and setting. In cells and extracts the contact can be indirect. Binding calls can cover weak binding; strength is not graded here. Where a sequence is shown, tags or fusion partners need not be part of it.

Molecular target: T1, 3×HA-xtMc1r (Xenopus tropicalis melanocortin 1 receptor) (Xenopus tropicalis)
T1 sequence: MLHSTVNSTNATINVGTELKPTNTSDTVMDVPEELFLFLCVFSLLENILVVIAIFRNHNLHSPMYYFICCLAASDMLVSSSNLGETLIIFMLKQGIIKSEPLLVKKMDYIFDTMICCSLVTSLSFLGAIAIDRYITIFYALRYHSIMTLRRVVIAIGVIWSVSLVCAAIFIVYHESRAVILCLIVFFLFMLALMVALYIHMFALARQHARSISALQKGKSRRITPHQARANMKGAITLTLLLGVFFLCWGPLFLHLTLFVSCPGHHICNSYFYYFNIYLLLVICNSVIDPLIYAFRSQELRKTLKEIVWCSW
Test: co-IP; 3×HA-xtMc1r and v5-xtMraps-flag co-transfected in HEK293T; lysate incubated with anti-HA rabbit mAb overnight at 4°C, protein A+G agarose beads; blots with anti-HA and anti-FLAG

binding: binds
Substance: v5-xtMrap1-flag (Xenopus tropicalis melanocortin receptor accessory protein 1)
